Five targets from the supplement of paper PMC6411743 can be followed below.

Protein sequences, listed by entry. Tags and fused reporters are not part of them. Lines headed by an entry give the natural chain unless they say otherwise; changes in a name come on top.
UniProt Q01780: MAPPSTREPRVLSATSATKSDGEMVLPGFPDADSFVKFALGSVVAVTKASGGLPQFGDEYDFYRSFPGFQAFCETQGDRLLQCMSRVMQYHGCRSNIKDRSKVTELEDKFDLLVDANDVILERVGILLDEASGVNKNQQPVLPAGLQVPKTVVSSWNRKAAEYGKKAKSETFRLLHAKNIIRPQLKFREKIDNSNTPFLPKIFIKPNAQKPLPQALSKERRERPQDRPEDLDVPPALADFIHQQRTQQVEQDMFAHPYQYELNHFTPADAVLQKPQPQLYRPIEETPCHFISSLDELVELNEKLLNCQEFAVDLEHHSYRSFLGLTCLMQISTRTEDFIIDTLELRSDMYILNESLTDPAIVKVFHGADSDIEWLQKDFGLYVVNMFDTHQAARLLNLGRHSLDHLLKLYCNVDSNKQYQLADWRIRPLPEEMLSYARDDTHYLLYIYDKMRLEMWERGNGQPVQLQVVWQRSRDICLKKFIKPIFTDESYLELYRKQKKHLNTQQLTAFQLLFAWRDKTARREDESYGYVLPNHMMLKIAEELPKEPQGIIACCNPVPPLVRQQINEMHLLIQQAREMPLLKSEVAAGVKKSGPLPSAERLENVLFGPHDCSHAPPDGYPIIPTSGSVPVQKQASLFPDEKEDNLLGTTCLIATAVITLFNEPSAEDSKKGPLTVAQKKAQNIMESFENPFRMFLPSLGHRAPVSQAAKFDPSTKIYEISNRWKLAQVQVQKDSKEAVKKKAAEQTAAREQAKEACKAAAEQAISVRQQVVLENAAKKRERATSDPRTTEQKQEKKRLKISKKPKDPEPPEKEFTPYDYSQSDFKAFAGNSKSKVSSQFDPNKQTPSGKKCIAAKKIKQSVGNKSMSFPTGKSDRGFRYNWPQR
UniProt Q01432: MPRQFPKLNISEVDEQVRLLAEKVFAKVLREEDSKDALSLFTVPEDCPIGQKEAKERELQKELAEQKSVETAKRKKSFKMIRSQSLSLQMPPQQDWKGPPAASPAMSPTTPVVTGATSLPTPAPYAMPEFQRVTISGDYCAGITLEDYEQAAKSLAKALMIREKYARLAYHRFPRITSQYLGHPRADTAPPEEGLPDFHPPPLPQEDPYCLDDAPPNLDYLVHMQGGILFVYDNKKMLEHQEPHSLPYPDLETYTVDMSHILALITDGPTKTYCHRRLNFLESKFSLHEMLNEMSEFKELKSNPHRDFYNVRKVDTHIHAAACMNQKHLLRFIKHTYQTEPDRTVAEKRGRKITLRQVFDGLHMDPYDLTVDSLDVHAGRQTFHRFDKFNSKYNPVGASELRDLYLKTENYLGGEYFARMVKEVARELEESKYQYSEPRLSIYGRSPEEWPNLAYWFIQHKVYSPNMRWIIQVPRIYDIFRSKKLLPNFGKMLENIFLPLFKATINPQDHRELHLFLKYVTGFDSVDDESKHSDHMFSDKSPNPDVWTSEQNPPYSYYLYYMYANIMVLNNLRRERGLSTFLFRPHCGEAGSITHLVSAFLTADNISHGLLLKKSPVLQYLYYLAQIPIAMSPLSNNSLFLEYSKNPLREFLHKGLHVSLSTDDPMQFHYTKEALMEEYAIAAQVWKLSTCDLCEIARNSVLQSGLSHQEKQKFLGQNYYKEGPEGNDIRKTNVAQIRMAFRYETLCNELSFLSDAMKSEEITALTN
UniProt Q12981: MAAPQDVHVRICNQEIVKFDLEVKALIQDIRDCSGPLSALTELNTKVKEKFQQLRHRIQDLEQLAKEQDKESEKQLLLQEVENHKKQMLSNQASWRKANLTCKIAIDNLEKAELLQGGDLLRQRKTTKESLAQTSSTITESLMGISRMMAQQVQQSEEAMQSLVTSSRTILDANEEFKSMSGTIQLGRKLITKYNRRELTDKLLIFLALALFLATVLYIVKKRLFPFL
UniProt Q13426: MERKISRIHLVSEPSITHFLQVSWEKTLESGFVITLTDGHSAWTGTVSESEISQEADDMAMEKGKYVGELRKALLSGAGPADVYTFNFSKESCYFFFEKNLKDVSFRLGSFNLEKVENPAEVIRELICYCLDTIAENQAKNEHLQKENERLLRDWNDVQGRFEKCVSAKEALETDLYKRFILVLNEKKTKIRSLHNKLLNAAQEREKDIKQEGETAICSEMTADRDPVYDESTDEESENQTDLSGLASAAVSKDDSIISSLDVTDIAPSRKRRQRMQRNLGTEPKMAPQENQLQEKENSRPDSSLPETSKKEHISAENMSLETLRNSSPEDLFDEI
UniProt Q13371: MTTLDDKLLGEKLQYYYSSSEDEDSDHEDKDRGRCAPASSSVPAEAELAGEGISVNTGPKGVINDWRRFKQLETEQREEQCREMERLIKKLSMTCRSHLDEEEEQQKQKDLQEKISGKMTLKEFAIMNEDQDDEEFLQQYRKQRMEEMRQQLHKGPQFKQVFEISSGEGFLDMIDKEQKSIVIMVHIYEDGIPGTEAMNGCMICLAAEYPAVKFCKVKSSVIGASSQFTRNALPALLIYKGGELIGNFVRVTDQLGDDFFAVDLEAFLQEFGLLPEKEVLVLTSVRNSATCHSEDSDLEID

Compound in the assay: Nc1nc2c(ncn2[C@@H]2O[C@H](COP(=O)(O)OP(=O)(O)OP(=O)(O)O)[C@@H](O)[C@H]2O)c(=O)[nH]1 [guanosine triphosphate]
Nature of the assay: NP40-soluble protein abundance relative to vehicle (solubility fold change) (ratio); higher = more soluble protein in presence of GTP. The protocol: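 Solubility proteome profiling in Jurkat crude lysate. Lysate was treated with Mg-GTP (0.1-10 mM) for 10 min at room temperature and 3 min at 37 °C, then solubilised with 0.8% NP40 and benzonase, followed by ultracentrifugation. Proteins were quantified by TMT10 LC-MS/MS; the value is the NP40-soluble abundance relative to the NP40-processed vehicle, from 3 independent experiments.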

± gives the standard deviation of the averaged measurements. This is one part of the list.

Regarding EXOSC10 (UniProt Q01780), the NP40-soluble protein abundance was 1.05 ± 0.018 (concentration: 0.1mM); 1.09 ± 0.015 (concentration: 0.5mM); 1.11 ± 0.012 (concentration: 1mM); 1.19 ± 0.045 (concentration: 2mM); 1.32 ± 0.075 (concentration: 4mM); 1.37 ± 0.098 (concentration: 6mM). The NP40-soluble protein abundance was found to be 1.42 ± 0.14 (concentration: 8mM) and 1.45 ± 0.14 (concentration: 10mM).

Regarding UniProt Q01432 and related entries, the NP40-soluble protein abundance runs as follows: (concentration: 0.1mM) 1.09 ± 0.051; (concentration: 0.5mM) 1.17 ± 0.038; (concentration: 1mM) 1.04 ± 0.04; (concentration: 2mM) 1.08 ± 0.062; (concentration: 4mM) 1.03 ± 0.079; (concentration: 6mM) 1.05 ± 0.093. Besides, the NP40-soluble protein abundance stood at 0.987 ± 0.045 (concentration: 8mM) and 0.991 ± 0.12 (concentration: 10mM).

UniProt Q12981 and related entries: the NP40-soluble protein abundance runs as follows: (concentration: 0.1mM) 0.963 ± 0.018; (concentration: 0.5mM) 0.9399 ± 0.0075; (concentration: 1mM) 0.987 ± 0.04; (concentration: 2mM) 0.98 ± 0.043; (concentration: 4mM) 0.964 ± 0.046; (concentration: 6mM) 0.944 ± 0.03. Moreover, the NP40-soluble protein abundance reads like this: (concentration: 8mM) 0.929 ± 0.011; (concentration: 10mM) 0.936 ± 0.043.

As for XRCC4 (UniProt Q13426), the NP40-soluble protein abundance (concentration: 0.1mM) was 1.01 ± 0.043; the NP40-soluble protein abundance (concentration: 0.5mM) is 1.07 ± 0.058; the NP40-soluble protein abundance (concentration: 1mM) is 1.07 ± 0.062; the NP40-soluble protein abundance (concentration: 2mM) is 1.16 ± 0.098; the NP40-soluble protein abundance (concentration: 4mM) worked out at 1.12 ± 0.12; the NP40-soluble protein abundance (concentration: 6mM) is 1.21 ± 0.14. The NP40-soluble protein abundance by setting is: (concentration: 8mM) 1.21 ± 0.15; (concentration: 10mM) 1.22 ± 0.16.

Consider PDCL (UniProt Q13371), for which the NP40-soluble protein abundance by setting is: (concentration: 0.1mM) 1.13 ± 0.12; (concentration: 0.5mM) 1.11 ± 0.21; (concentration: 1mM) 1.15 ± 0.18; (concentration: 2mM) 1.23 ± 0.23; (concentration: 4mM) 1.26 ± 0.21; (concentration: 6mM) 1.21 ± 0.24. Moreover, the NP40-soluble protein abundance is 1.22 ± 0.23 (concentration: 8mM) and 1.2 ± 0.23 (concentration: 10mM).
